In PubChem BioAssay AID445 (National Center for Advancing Translational Sciences (NCATS), 2006) one finds AC50 data, which are given here for 18 compounds.

The structures appear in SMILES notation. The list shows a part of the results. These are further read-outs of the screen, such as a control signal, another cell line or another target. No call is given for them. The list favours compounds with an active or inconclusive main result. Words in brackets tell the shape of the fitted curve; partial curves, single points and poor fits give uncertain potencies.

As usually defined, the AC50 is the concentration at which the activity in the assay is half-maximal.

The experiment in a line: IkB Signaling. Conditions: ABC-DLBCL IkBa-CBG/CBR dual luciferase ratio (green luciferase fused to IkBa over red control in OCI-Ly3 lymphoma cells), 4 h; measured here: control luc red channel unless noted. Summed up: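 Luminescence ratio of IκBα-fused green versus native red beetle luciferase in OCI-Ly3 cells, 4 h post-doxycycline with compound; red signal alone, scaled from basal (0%) to zero light (-100%), flagged nonspecific or cytotoxic effects.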
For `CCOc1ccc(CNC(=O)c2ccc(NC(=O)N3CCSc4ncccc43)cc2)cc1OC`, the AC50 was 3.98 µM [falling, partial curve].

`CCc1ccc(-c2cc(C)no2)cc1S(=O)(=O)Nc1ccc(C)cn1`: the AC50 is 0.158 µM [rising, full curve].

Take `Cc1cccc(-c2nnn3c2nc(NCc2ccccc2)c2ccccc23)c1`: the AC50 is 0.631 µM [falling, full curve].

`Cc1cc2c(cc(C(=O)OCC(=O)NCc3cccs3)n2C(C)C)o1`: the AC50 is 39.8 µM [falling, single point].

Regarding `CC(=O)Nc1nc2ccccc2n1CCOc1ccccc1`, the AC50 is 39.8 µM [rising, single point] [measured here: IkB-luc green channel].

For the compound `CNC(=O)C1CCN(Cc2cc3ccccc3n2Cc2cccc(C)c2)CC1`, the AC50 is 12.6 µM [falling, partial curve].

Consider `CCOc1ccc(CCNC(=O)c2ccc(CS(=O)(=O)c3ccccc3C)o2)cc1OCC`, for which the AC50 is 15.8 µM [falling, single point].

For `CSCCC(NS(=O)(=O)c1cccs1)C(=O)Nc1ccc(C)c(Cl)c1` (stereo not drawn), the concentration at half-maximal activity (AC50) is 31.6 µM [falling, single point].

Consider `COC(=O)c1ccc(Cn2c(SCC(=O)NCc3ccccc3)nc3ccccc32)cc1`, for which the AC50 is 25.1 µM [falling, partial curve].

Take `CCc1ccccc1Nc1ncnc2c1cnn2-c1ccc(Cl)cc1`: the half-maximal activity concentration (AC50) is 10 µM [falling, partial curve].

`CC(=O)c1ccc(NC(=O)CSc2nnc(NC(=O)Nc3ccccc3)s2)cc1`: the AC50 was 0.1 µM [rising, full curve].

`COc1ccc(OC)c(NC(=O)Cc2c(C)n(C(=O)c3ccc(Cl)cc3)c3ccc(OC)cc23)c1`: the AC50 is 6.31 µM [falling, partial curve].

Turning to `CC(=O)c1cccc(NC(=O)CN2C(=O)c3cccnc3Sc3ccccc32)c1`, the half-maximal activity concentration (AC50) is 15.8 µM [falling, partial curve].

Take `CCc1ccccc1NC(=O)c1sc2nc3n(c(=O)c2c1C)CCC3`: the half-maximal activity concentration (AC50) is 7.94 µM [falling, partial curve].

For `CCOc1ccccc1NC(=O)c1ccc2c(Cl)c3c(nc2c1)CCCC3`, the AC50 is 0.631 µM [falling, full curve].

As for `COc1cccc(CNc2nc3c(-c4cccc(C)c4)nnn3c3ccccc23)c1`, the AC50 is 0.398 µM [falling, full curve].

For the compound `CCOc1ccc(-c2nnc(SCC(=O)NCCc3ccccc3)nc2-c2ccc(OCC)cc2)cc1`, the AC50 was 0.126 µM [falling, full curve].

For the compound `CC(=O)Nc1ccc(NC(=O)CCC(=O)c2ccc(C)cc2)cc1`, the AC50 is 3.98 µM [rising, single point].
